Data: patent publication US20060194217A1, “Method of genotyping and phenotyping hepatitis B viruses resistant to antiviral molecules” (priority 2005, published 2006)
At least one structure is not confirmed: it was looked up by name or label, or the drawing left a doubt.

Tested on: HBV quasi-species of patient sample N° 19
Test: High throughput phenotyping assay: patient sample N° 19
Assay type: cell-based, hepatitis B virus
Method: The DNA from 1 ml of serum was extracted using the QIAamp Ultrasens Virus kit (Qiagen), and was taken up in 60 μl of water.
An amplification of the whole genomes by the method of the invention including the Nar I site was carried out and the amplicons obtained were purified by means of a silica column (Qiagen kit, Qiaquick purification kit).
The amplicons were then digested with the Nar I enzyme and purified by the same method as above.
These amplicons were transfected, in a culture format comprising a 25 cm^2 flask seeded the day before at a density of 5.2×10^4 cells/cm^2, with 200 to 400 ng of amplicon/cm^2.
After 60 hours, the cells were trypsinized and then treated with DNAse. […]
This denaturation step was then stopped by adding a neutralizing buffer, 15 μl of 1M Tris at pH 7, and the solution thus obtained was subjected to a dilution before quantification by real time PCR. […]
The viral DNA extracted was then quantified by means of real time PCR quantification method.
This HBV production quantification step can be directly carried out after the preceding step, without any need to purify or concentrate the cell lysates to be assayed. […] (quantification step), and a final extension of one minute at 63° C. […]
For each plate assayed, a standard curve of 10^6 to 10^2 HBV copies/reaction was quantified in parallel. […]

Q: For `Nc1ccn([C@@H]2CS[C@H](CO)O2)c(=O)n1` [Lamivudine], which in vitro phenotype is on record?
A: The in vitro phenotype was “doubly resistant”.
